Data: the supplement of paper PMC11732987, “Enantioselective OTUD7B fragment discovery through chemoproteomics screening and high-throughput optimisation” (Communications Chemistry, 2025)
Some of the results follow. The data scatter; read single values as rough.

Chains of the proteins cited; added tags and fusions are not shown. Lines headed by an entry give the natural chain unless they say otherwise; changes in a name come on top. Residues count along the entry.
UniProt Q13685: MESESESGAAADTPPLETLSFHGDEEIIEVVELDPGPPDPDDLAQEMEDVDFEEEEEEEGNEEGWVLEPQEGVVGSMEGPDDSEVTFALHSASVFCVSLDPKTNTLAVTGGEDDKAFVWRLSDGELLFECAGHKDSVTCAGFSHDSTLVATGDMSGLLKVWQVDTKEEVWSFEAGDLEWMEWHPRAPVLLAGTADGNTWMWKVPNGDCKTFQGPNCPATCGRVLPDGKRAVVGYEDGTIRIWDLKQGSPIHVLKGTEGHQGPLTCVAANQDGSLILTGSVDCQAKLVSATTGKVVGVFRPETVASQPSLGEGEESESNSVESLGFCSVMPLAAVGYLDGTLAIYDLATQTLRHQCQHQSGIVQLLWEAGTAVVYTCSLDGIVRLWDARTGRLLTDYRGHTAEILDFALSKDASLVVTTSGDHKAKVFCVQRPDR
UniProt Q6PCB6, 51-94: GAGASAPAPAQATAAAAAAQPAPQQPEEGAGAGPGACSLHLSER
UniProt P00519, whole entry, looked up: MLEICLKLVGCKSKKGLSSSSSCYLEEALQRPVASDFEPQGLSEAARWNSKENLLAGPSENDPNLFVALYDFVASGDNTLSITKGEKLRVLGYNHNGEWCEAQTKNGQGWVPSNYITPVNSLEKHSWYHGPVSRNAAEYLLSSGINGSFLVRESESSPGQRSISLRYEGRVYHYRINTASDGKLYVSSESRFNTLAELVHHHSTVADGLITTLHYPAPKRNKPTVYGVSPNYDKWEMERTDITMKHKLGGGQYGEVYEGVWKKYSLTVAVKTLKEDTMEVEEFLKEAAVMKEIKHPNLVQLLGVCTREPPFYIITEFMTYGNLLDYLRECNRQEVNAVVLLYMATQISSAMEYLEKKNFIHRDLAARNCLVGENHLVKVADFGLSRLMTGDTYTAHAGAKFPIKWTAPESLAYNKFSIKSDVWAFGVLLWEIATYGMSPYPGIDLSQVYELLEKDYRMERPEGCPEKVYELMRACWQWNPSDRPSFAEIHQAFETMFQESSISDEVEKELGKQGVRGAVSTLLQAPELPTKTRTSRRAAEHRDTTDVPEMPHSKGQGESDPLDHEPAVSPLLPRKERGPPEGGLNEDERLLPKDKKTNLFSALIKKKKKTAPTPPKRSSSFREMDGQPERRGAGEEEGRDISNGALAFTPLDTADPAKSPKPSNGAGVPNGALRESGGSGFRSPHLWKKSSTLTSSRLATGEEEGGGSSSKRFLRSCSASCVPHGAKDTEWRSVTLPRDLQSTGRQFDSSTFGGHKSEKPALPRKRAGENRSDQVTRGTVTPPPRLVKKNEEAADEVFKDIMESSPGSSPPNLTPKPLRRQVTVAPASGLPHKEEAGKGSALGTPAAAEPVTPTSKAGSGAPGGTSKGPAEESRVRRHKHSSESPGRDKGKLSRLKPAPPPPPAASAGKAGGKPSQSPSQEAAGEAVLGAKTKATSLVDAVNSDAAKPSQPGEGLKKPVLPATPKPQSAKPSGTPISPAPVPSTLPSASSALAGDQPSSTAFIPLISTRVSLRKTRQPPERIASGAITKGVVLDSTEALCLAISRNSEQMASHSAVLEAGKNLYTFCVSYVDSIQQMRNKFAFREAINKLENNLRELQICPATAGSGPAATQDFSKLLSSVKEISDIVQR
UniProt Q15057: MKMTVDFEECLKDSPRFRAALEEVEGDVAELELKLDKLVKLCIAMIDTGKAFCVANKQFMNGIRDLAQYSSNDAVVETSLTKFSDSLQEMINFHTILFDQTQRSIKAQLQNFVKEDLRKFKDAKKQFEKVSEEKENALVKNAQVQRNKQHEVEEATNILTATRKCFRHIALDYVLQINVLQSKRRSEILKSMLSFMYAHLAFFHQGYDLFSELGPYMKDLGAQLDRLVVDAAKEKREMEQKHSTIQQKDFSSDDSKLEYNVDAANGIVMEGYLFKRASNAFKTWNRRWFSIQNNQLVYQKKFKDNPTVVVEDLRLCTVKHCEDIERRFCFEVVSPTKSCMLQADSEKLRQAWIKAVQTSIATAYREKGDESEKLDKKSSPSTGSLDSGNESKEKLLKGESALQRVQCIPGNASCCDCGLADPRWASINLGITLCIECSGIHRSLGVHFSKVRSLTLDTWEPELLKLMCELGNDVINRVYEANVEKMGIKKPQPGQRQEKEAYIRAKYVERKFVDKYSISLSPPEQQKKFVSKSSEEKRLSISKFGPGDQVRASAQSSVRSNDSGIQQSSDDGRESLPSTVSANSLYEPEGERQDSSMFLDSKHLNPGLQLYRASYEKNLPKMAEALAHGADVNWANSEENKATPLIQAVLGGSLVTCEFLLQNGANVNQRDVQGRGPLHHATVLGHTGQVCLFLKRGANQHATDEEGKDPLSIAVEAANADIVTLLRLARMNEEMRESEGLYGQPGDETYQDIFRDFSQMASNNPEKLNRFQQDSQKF
UniProt Q5JTZ9, 902-922: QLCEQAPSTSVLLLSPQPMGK
UniProt Q5JTZ9, whole entry, looked up: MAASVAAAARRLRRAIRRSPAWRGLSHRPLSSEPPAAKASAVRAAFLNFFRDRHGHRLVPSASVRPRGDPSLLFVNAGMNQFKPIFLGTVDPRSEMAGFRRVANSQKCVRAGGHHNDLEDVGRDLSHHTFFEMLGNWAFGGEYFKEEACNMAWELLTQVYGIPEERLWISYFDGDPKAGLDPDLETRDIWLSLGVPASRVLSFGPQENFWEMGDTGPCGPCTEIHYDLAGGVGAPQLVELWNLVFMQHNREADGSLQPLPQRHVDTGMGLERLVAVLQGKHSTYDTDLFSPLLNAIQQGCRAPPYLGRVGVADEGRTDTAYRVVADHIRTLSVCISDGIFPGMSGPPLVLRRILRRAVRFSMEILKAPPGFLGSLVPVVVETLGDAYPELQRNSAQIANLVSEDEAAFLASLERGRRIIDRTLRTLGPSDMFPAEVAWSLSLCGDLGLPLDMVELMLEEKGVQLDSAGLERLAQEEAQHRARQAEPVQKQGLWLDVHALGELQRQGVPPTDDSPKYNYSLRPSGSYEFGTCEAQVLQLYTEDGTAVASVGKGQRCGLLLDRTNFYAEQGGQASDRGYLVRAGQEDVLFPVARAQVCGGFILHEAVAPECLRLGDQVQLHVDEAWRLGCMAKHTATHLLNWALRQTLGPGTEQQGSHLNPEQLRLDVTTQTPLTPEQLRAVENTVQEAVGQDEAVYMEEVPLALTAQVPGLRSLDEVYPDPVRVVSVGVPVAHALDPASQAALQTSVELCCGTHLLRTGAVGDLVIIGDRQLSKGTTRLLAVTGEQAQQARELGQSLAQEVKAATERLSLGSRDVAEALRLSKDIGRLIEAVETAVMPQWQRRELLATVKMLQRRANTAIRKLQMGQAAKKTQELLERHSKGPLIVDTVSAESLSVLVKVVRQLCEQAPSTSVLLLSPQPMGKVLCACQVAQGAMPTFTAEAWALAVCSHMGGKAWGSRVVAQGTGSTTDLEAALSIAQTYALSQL
UniProt Q9NX38: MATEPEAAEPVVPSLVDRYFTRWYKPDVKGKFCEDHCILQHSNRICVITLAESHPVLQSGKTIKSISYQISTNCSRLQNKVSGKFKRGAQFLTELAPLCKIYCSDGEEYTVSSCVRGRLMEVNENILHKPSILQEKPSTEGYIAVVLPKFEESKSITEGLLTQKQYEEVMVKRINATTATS
UniProt P42684, whole entry, looked up: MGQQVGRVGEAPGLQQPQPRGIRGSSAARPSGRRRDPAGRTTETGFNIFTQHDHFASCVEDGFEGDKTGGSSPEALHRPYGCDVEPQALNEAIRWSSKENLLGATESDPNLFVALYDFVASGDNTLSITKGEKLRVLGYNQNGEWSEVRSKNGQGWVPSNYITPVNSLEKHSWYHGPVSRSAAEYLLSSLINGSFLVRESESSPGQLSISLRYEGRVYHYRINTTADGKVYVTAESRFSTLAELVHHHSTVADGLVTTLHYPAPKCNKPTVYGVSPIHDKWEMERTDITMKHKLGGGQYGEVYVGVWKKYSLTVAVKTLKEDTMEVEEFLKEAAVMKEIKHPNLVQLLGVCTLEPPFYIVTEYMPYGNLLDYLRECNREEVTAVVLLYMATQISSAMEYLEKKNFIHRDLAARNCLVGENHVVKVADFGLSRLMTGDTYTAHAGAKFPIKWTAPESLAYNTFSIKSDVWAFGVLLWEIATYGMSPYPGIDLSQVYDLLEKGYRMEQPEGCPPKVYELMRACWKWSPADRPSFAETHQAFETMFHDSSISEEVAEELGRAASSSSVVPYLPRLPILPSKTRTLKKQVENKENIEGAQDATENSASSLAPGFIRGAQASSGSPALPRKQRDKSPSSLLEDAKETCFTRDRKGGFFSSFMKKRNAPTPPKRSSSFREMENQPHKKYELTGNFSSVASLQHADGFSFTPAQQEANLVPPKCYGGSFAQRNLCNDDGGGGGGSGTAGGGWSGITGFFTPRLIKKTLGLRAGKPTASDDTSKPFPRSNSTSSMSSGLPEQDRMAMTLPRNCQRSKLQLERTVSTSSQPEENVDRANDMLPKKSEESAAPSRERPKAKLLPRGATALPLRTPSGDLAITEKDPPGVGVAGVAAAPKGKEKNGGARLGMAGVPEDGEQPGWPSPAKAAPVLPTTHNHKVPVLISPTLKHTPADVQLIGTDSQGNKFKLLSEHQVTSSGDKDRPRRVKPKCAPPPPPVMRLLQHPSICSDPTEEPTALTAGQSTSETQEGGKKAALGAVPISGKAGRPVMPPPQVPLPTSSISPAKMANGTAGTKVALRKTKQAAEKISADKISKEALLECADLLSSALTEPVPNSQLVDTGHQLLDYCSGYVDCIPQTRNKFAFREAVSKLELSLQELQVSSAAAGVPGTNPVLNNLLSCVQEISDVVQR
UniProt P42684, 992-1024: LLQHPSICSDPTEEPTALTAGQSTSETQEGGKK
UniProt Q9UKU7: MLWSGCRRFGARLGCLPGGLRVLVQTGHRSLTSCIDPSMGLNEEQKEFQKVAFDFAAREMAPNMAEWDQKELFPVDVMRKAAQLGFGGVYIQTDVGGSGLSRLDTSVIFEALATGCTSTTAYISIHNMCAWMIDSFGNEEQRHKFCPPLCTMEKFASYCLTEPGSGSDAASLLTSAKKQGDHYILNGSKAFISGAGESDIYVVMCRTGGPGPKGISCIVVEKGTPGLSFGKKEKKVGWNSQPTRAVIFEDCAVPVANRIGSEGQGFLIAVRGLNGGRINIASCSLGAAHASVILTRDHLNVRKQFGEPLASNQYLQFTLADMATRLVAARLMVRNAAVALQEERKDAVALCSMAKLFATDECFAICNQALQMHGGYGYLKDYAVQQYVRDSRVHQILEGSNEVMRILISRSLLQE
UniProt Q9UG63: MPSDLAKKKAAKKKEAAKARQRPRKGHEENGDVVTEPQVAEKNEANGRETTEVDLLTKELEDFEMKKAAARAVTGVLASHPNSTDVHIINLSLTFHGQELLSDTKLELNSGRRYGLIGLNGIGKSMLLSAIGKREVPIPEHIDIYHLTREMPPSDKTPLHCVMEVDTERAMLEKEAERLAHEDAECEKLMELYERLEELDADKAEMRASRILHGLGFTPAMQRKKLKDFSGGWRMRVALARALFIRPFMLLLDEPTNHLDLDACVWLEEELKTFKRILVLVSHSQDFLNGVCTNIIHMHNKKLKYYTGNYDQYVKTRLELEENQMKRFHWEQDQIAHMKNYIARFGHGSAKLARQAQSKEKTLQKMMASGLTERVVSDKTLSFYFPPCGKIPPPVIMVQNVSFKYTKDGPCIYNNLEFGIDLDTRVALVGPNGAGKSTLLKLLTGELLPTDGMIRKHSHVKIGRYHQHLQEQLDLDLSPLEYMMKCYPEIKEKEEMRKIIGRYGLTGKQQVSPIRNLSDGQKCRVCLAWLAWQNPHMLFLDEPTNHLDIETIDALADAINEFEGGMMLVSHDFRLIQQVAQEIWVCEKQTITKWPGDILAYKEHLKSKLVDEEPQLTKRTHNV
UniProt Q9NUQ8: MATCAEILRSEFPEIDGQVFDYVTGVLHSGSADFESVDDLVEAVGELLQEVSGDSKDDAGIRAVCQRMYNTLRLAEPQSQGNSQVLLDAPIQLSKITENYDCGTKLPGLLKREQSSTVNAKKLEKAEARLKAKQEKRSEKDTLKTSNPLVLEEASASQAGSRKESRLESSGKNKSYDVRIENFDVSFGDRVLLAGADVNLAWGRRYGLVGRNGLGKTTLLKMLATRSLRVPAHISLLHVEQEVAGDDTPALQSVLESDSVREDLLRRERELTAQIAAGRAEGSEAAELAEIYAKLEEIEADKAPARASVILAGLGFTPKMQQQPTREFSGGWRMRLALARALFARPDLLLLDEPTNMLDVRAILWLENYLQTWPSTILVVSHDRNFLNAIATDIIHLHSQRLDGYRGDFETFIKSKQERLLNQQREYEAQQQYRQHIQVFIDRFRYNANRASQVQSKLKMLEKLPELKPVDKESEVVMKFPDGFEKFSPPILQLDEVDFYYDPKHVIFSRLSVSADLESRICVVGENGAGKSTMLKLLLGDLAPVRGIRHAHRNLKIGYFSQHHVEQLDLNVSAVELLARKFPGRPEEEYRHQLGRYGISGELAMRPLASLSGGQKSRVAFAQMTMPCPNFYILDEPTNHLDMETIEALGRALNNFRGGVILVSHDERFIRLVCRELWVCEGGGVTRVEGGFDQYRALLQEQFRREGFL

compound: ClCC(=O)N[C@@H]1CCCc2ccccc12; assay: log2 mean competition ratio of IA-DTB cysteine labelling (DMSO/compound) (log2 ratio); higher = stronger cysteine engagement by compound; settings: 50 µM; treatment time: 4 h; cell line lysate: HEK293T
Experimental: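 IA-DTB competitive cysteine chemoproteomics in HEK293T RIPA lysate. Lysates were treated with compound 29 or 30 at 50 or 200 µM for 4 h, then IA-DTB (500 µM, 1 h), trypsin-digested, NeutrAvidin-enriched and analysed by diaPASEF. Competition ratio = intensity DMSO / intensity compound (n=4 treated, n=64 DMSO); binding: mean log2 CR ≥ 1 and p ≤ 0.05 plus QC filters. Target is the cysteine site.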

Target	log2 mean competition ratio
AAMP C208 (UniProt Q13685)	-0.00287
ABHD17C C87 (UniProt Q6PCB6)	-0.409
ACAT1 C196	0.21
ACADSB C261 (UniProt P45954)	0.304
ABL1 C464 (UniProt P00519)	0.165
ABL1 C369 (UniProt P00519)	-0.0819
ABCC5 C280 (UniProt O15440)	-0.459
ABHD12 C52 (UniProt Q8N2K0)	0.00743
ACACA C1396 (UniProt Q13085)	-0.0564
ACAP2 C53 (UniProt Q15057)	-0.162
AARS2 C904 (UniProt Q5JTZ9)	-0.0927
AAK1 C288	0.516
ABITRAM C74 (UniProt Q9NX38)	0.136
AARS2 C555 (UniProt Q5JTZ9)	0.354
ACACA C1297 (UniProt Q13085)	-0.268
ABHD16A C248 (UniProt O95870)	-0.252

Target	log2 mean competition ratio
ABL2 C415 (UniProt P42684)	0.0984
ABCB1 C1074 (UniProt P08183)	0.347
AAMDC C122 (UniProt Q9H7C9)	0.139
AARSD1 C266 (UniProt Q9BTE6)	-0.239
ACACA C407 (UniProt Q13085)	-0.0392
AASS C342	-0.306
AASS C765	-0.312
ABL2 C999 (UniProt P42684)	-0.155
ACAD8 C351 (UniProt Q9UKU7)	-0.0641
ACAD8 C251 (UniProt Q9UKU7)	-0.302
ABCF2 C186 (UniProt Q9UG63)	-0.156
ABCE1 C38	-0.0752
ABCF3 C522 (UniProt Q9NUQ8)	-0.0768
AAK1 C193	0.263
ABCD1 C511 (UniProt P33897)	0.105

same assay, conditions: 200 µM; treatment time: 4 h; cell line lysate: HEK293T

Target	log2 mean competition ratio
AAMP C208 (UniProt Q13685)	0.24
ABHD17C C87 (UniProt Q6PCB6)	-0.165
ACAT1 C196	0.0252
ACADSB C261 (UniProt P45954)	0.296
ABL1 C464 (UniProt P00519)	-0.22
ABL1 C369 (UniProt P00519)	0.0455
ABCC5 C280 (UniProt O15440)	-0.0452
ABHD12 C52 (UniProt Q8N2K0)	0.178
ACACA C1396 (UniProt Q13085)	-0.254
ACAP2 C53 (UniProt Q15057)	-0.233
AARS2 C904 (UniProt Q5JTZ9)	-0.299
AAK1 C288	0.464
ABITRAM C74 (UniProt Q9NX38)	-0.0962
AARS2 C555 (UniProt Q5JTZ9)	-0.166
ACACA C1297 (UniProt Q13085)	0.039
ABHD16A C248 (UniProt O95870)	-0.0255

Target	log2 mean competition ratio
ABL2 C415 (UniProt P42684)	0.0469
ABCB1 C1074 (UniProt P08183)	0.281
AAMDC C122 (UniProt Q9H7C9)	0.105
AARSD1 C266 (UniProt Q9BTE6)	-0.255
ACACA C407 (UniProt Q13085)	-0.44
AASS C342	-0.249
AASS C765	0.0116
ABL2 C999 (UniProt P42684)	-0.219
ACAD8 C351 (UniProt Q9UKU7)	0.115
ACAD8 C251 (UniProt Q9UKU7)	-0.101
ABCF2 C186 (UniProt Q9UG63)	0.182
ABCE1 C38	0.108
ABCF3 C522 (UniProt Q9NUQ8)	-0.00877
AAK1 C193	-0.0861
ABCD1 C511 (UniProt P33897)	0.136
